This passage reports survivor count and T/C results from PubChem BioAssay AID222 (DTP/NCI, 2004).

The subject of the assay is C57BL/6 mice, intracerebral ependymoblastoma, median survival T/C. The experiment in a line: NCI In Vivo Anticancer Drug Screen. Data for tumor model Ependymoblastoma (intracerebral) in C57BL/6 mice. Particulars: T/C endpoint: median survival time, higher T/C = longer survival. How it is done:
The antitumor activity of compounds was measured in mice bearing transplantable tumors. Survival or tumor size were measured and the results are expressed as the measurement made in the treated group (T) divided by the measurement made in the vehicle treated control group (C). The tumor model used in this assay is Ependymoblastoma (intracerebral) in C57BL/6 mice

[1] abbreviates: dose: 128.0 mg/kg/injection, schedule: Q01DX005 (ip), vehicle: saline with Tween-80.
The mark [2] stands for this setting: dose: 4.0 mg/kg/injection, schedule: Q01DX005 (ip), vehicle: Klucel (hydroxypropylcellulose) (HPC).
Where [3] appears, read: dose: 8.0 mg/kg/injection, schedule: Q01DX005 (ip), vehicle: Klucel (hydroxypropylcellulose) (HPC).
Where [4] appears, read: dose: 16.0 mg/kg/injection, schedule: Q01DX005 (ip), vehicle: Klucel (hydroxypropylcellulose) (HPC).
The mark [5] stands for this setting: dose: 16.0 mg/kg/injection, schedule: Q01DX005 (ip), vehicle: saline.
[6] abbreviates: dose: 160.0 mg/kg/injection, schedule: Q01DX001 (ip), vehicle: Klucel (hydroxypropylcellulose) (HPC).
The mark [7] stands for this setting: dose: 320.0 mg/kg/injection, schedule: Q01DX001 (ip), vehicle: Klucel (hydroxypropylcellulose) (HPC).

The list shows only some results of the screen, not a fair sample: it gathers tests that were run many times, whatever their T/C, doses with no T/C, and many T/C values between a quarter and a half above the control. Further doses and runs are listed elsewhere. T/C: endpoint of the treated group in % of that of the vehicle group. Some entries give survivors of the animals treated and no T/C: the source files T/C as zero there, which appears to mark a toxic dose or a test without result, not a measured value. Some doses without a T/C left all or most animals alive at the check, yet need not have been tolerated: the source hardly ever lists a survival T/C far under the control, and the zero likely stands for such cases as well. Survivors were counted at the toxicity check, usually on the fifth day, unless a day is given; later deaths do not show. Schedules are NCI's codes, read here as Q, the interval in days (D) or hours (H), X, the number of doses. Marks such as (2×) stand for listed records that agree. Some entries were tested several times; the values are given in rising order. Some schedules carry Z or #; the key to these is not given. For survival time, the PubChem record calls one and a half times the control and up active, and a quarter to a half above the control has no call in these data; cut-offs in other NCI protocols can differ. Some T/C values are followed by the survivors on the day toxicity was checked, most often the fifth; where none is given, no animal had died by that day.

Regarding `CC/C(=C(/CC)c1ccc(O)cc1)c1ccc(O)cc1`, the survivor count is recorded as 10 of 10 under setting [1]; 10 of 10 (dose: 128.0 mg/kg/injection, schedule: Q01DX005 (ip), vehicle: saline); 9 of 10 (dose: 256.0 mg/kg/injection, schedule: Q01DX005 (ip), vehicle: saline); 10 of 10 (dose: 512.0 mg/kg/injection, schedule: Q01DX005 (ip), vehicle: saline).

For `N=c1ccn2c(n1)OC1C(O)C(CO)OC12` (centres undefined), the survivor count (dose: 400.0 mg/kg/injection, schedule: Q01DX005 (ip), vehicle: saline) was 10 of 10; the survivor count (dose: 800.0 mg/kg/injection, schedule: Q01DX005 (ip), vehicle: saline) was 8 of 10 and 10 of 10; the survivor count (dose: 1600.0 mg/kg/injection, schedule: Q01DX005 (ip), vehicle: saline) is given as 7 of 10. Moreover, the T/C (dose: 1600.0 mg/kg/injection, schedule: Q01DX001 (ip), vehicle: saline) was 126 % of control [7 of 10 alive].

As for `CC[n+]1c(-c2ccccc2)c2cc(N)ccc2c2ccc(N)cc21`, the survivor count by setting is: (dose: 24.0 mg/kg/injection, schedule: Q01DX005 (ip), vehicle: saline) 10 of 10; (dose: 48.0 mg/kg/injection, schedule: Q01DX005 (ip), vehicle: saline) 6 of 10; (dose: 96.0 mg/kg/injection, schedule: Q01DX005 (ip), vehicle: saline) 0 of 10.

In the case of `O=CC(NC(=O)N(CCCl)N=O)C(O)C(O)C(O)CO` (centres undefined), the T/C runs as follows: (dose: 0.25 mg/kg/injection, schedule: Q01DX005 (ip), vehicle: saline, evaluated on day 45) 94 [9 of 10 alive] and 98 % of control; (dose: 0.25 mg/kg/injection, schedule: Q01DX005 (ip), vehicle: saline, evaluated on day 60) 95 and 108 % of control; (dose: 0.5 mg/kg/injection, schedule: Q01DX005 (ip), vehicle: saline, evaluated on day 45) 97 and 103 % of control; (dose: 0.5 mg/kg/injection, schedule: Q01DX005 (ip), vehicle: saline, evaluated on day 60) 101 and 103 % of control; (dose: 1.0 mg/kg/injection, schedule: Q01DX005 (ip), vehicle: Klucel (hydroxypropylcellulose) (HPC)) 101, 104 [9 of 10 alive], 105, 112 % of control; (dose: 1.0 mg/kg/injection, schedule: Q01DX005 (ip), vehicle: saline, evaluated on day 45) 88 and 103 % of control. Besides, the T/C (dose: 1.0 mg/kg/injection, schedule: Q01DX005 (ip), vehicle: saline, evaluated on day 60) was 105 and 112 % of control; the T/C (dose: 2.0 mg/kg/injection, schedule: Q01DX005 (ip), vehicle: Klucel (hydroxypropylcellulose) (HPC)) is 103 [6 of 9 alive], 110, 111, 117 % of control; the T/C (dose: 2.0 mg/kg/injection, schedule: Q01DX005 (ip), vehicle: saline, evaluated on day 45) is 94 and 122 % of control; the T/C (dose: 2.0 mg/kg/injection, schedule: Q01DX005 (ip), vehicle: saline, evaluated on day 60) was 98 and 105 % of control; the T/C under setting [2] is 109 (2×), 114, 131 % of control; the T/C (dose: 4.0 mg/kg/injection, schedule: Q01DX005 (ip), vehicle: saline, evaluated on day 45) was 112 and 129 % of control. For the same compound, the T/C runs as follows: (dose: 4.0 mg/kg/injection, schedule: Q01DX005 (ip), vehicle: saline, evaluated on day 60) 103, 107, 122 % of control; under setting [3], 118 [9 of 10 alive], 119, 151 % of control; (dose: 8.0 mg/kg/injection, schedule: Q01DX005 (ip), vehicle: saline, evaluated on day 45) 124 and 130 % of control; (dose: 8.0 mg/kg/injection, schedule: Q01DX005 (ip), vehicle: saline, evaluated on day 60) 117 and 118 % of control [9 of 10 alive]; under setting [5], 143 % of control; (dose: 16.0 mg/kg/injection, schedule: Q01DX005 (oral), vehicle: saline) 135 % of control. Moreover, the survivor count under setting [3] is on record as 10 of 10; the survivor count (dose: 8.0 mg/kg/injection, schedule: Q01DX005 (ip), vehicle: saline) is given as 9 of 10; the survivor count under setting [4] is reported as 8 of 10, 9 of 10, 10 of 10; the survivor count under setting [5] was 10 of 10 (2×); the survivor count (dose: 32.0 mg/kg/injection, schedule: Q01DX005 (ip), vehicle: saline) is 8 of 10; the survivor count (dose: 64.0 mg/kg/injection, schedule: Q01DX005 (ip), vehicle: saline) is reported as 2 of 10. Moreover, the survivor count is reported as 8 of 10 (dose: 128.0 mg/kg/injection, schedule: Q01DX005 (oral), vehicle: saline) and 7 of 10 (dose: 256.0 mg/kg/injection, schedule: Q01DX005 (oral), vehicle: saline).

For `CCOC(=O)C(CC(C)C)NC(=O)C(Cc1ccc(N(CCCl)CCCl)cc1)NC(C)=O` (centres undefined), the T/C reads like this: under setting [2], 104, 108, 109 [9 of 10 alive], 110 % of control; under setting [3], 102, 103, 111, 123 % of control; under setting [4], 104, 106, 113, 115 % of control; (dose: 16.0 mg/kg/injection, schedule: Q01DX005 (ip), vehicle: saline with Tween-80) 126 % of control; (dose: 32.0 mg/kg/injection, schedule: Q01DX005 (ip), vehicle: Klucel (hydroxypropylcellulose) (HPC)) 97, 114, 118, 129 % of control. Further, the survivor count is, setting by setting: (dose: 64.0 mg/kg/injection, schedule: Q01DX005 (ip), vehicle: Klucel (hydroxypropylcellulose) (HPC)) 8 of 10 and 10 of 10; (dose: 64.0 mg/kg/injection, schedule: Q01DX005 (ip), vehicle: saline with Tween-80) 9 of 10; (dose: 128.0 mg/kg/injection, schedule: Q01DX005 (ip), vehicle: Klucel (hydroxypropylcellulose) (HPC)) 0 of 10; under setting [1], 7 of 10 and 8 of 10; (dose: 256.0 mg/kg/injection, schedule: Q#A X002 (ip), vehicle: Klucel (hydroxypropylcellulose) (HPC)) 0 of 10; (dose: 512.0 mg/kg/injection, schedule: Q01DX001 (ip), vehicle: Klucel (hydroxypropylcellulose) (HPC)) 6 of 10.

As to `CCCN(C)C(=O)N(CCCl)N=O`, the T/C reads like this: (dose: 10.0 mg/kg/injection, schedule: Q01DX001 (ip), vehicle: Klucel (hydroxypropylcellulose) (HPC)) 93 [3 of 10 alive], 95 [4 of 10 alive], 99 [3 of 10 alive], 109, 121, 122, 123, 134, 152 % of control; (dose: 20.0 mg/kg/injection, schedule: Q01DX001 (ip), vehicle: Klucel (hydroxypropylcellulose) (HPC)) 99 [4 of 10 alive], 105 [7 of 10 alive], 109, 112 [9 of 10 alive], 116 [9 of 10 alive], 120 [6 of 10 alive], 138, 139 [9 of 10 alive], 147 % of control; (dose: 40.0 mg/kg/injection, schedule: Q01DX001 (ip), vehicle: Klucel (hydroxypropylcellulose) (HPC)) 94 [4 of 10 alive], 101 [4 of 10 alive], 109 [6 of 10 alive], 112 [9 of 10 alive], 126, 137, 139 [9 of 10 alive], 165, 195 % of control; (dose: 80.0 mg/kg/injection, schedule: Q01DX001 (ip), vehicle: Klucel (hydroxypropylcellulose) (HPC)) 96 [3 of 10 alive], 104, 106 [6 of 10 alive], 117 [9 of 10 alive], 130 [9 of 10 alive], 143 [8 of 10 alive], 146 [9 of 10 alive], 160, 198 % of control; under setting [6], 86 [8 of 10 alive], 99 [6 of 10 alive], 103 [5 of 10 alive], 149, 179 % of control; under setting [7], 87 [1 of 10 alive] and 94 % of control [3 of 10 alive]. The survivor count under setting [6] is 2 of 10, 4 of 10, 7 of 10; the survivor count (dose: 250.0 mg/kg/injection, schedule: Q01DX001 (ip), vehicle: other) is given as 6 of 10; the survivor count under setting [7] is 0 of 10, 5 of 10, 8 of 10.

With `Nc1ccc(C(=O)O)c(O)c1`, the survivor count reads like this: (dose: 540.0 mg/kg/injection, schedule: Q01DX005 (ip), vehicle: saline with Tween-80) 4 of 10; (dose: 1080.0 mg/kg/injection, schedule: Q01DX005 (ip), vehicle: saline with Tween-80) 0 of 10.
